The exact form of at least one protein or probe is not confirmed. The comparison behind a weaker result is the experiment's own reference, which may not be listed here.

Chains of the proteins cited; added tags and fusions are not shown. Lines headed by an entry give the natural chain unless they say otherwise; changes in a name come on top.
UniProt O29494: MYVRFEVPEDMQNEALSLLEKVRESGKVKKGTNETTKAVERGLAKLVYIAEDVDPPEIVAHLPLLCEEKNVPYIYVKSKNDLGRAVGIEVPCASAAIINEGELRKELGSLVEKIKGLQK

For the series, the target named is L7Ae (Archaeoglobus fulgidus) (UniProt O29494). The experiment in a line: inhibition of the protein. Conditions: slight repression only at 5-10 uM L7Ae; purified recombinant protein; protein details: His tag (pET-28b+, NdeI/XhoI); variant of Box C/D-DsRed-Ex mRNA.

“GGGAGACCACAACGGUUUCCCUCUAGAAAUAAUUUUGUUUAACUUUAAGAAGGAGAUAUACCAAUGAGGGGAAACCCAGCCUCCUCCGAGGACGUCAUCAAGGAGUUCAUGCGCUUCAAGGUGCGCAUGGAGGGCUCCGUGAACGGCCACGAGUUCGAGAUCGAGGGCGAGGGCGAGGGCCGCCCCUACGAGGGCACCCAGACCGCCAAGCUGAAGGUGACCAAGGGCGGCCCCCUGCCCUUCGCCUGGGACAUCCUGUCCCCCCAGUUCCAGUACGGCUCCAAGGUGUACGUGAAGCACCCCGCCGACAUCCCCGACUACAAGAAGCUGUCCUUCCCCGAGGGCUUCAAGUGGGAGCGCGUGAUGAACUUCGAGGACGGCGGCGUGGUGACCGUGACCCAGGACUCCUCCCUGCAGGACGGCUCCUUCAUCUACAAGGUGAAGUUCAUCGGCGUGAACUUCCCCUCCGACGGCCCCGUAAUGCAGAAGAAGACUAUGGGCUGGGAGGCCUCCACCGAGCGCCUGUACCCCCGCGACGGCGUGCUGAAGGGCGAGAUCCACAAGGCCCUGAAGCUGAAGGACGGCGGCCACUACCUGGUGGAGUUCAAGUCCAUCUACAUGGCCAAGAAGCCCGUGCAGCUGCCCGGCUACUACUACGUGGACUCCAAGCUGGACAUCACCUCCCACAACGAGGACUACACCAUCGUGGAGCAGUACGAGCGCGCCGAGGGCCGCCACCACCUGUUCCUGUAGUAAUGAAUA [Box C/D mut-DsRed-Ex mRNA]”: the functional effect result was “less active”.

(Values after patent publication US20110040077.)
